Laboratory results published in article doi:10.1101/555896.

Biological target: Flag-HA-tagged AGO1 (human) (UniProt Q9UL18)
Test: co-IP

- binding: binds
Substance: RanBP2 dead E3 mutant (RanBP2-dE3) (from UniProt P49792)

These are yes or no findings as the source states them, for the method shown. Binding seen in cells or lysates may run through a third protein. Binding can be weak; no strength is given.
